# Out of some 340,000 compounds screened, about 6,200 (1.8%) were called active. This list was built around the results that the source calls inconclusive (neither active nor inactive); the mix of calls is not that of the screen. Calls come from the whole dose curve; as a rule, active = well fitted activation curve with a large enough effect; inconclusive = small, poorly fitted or top-dose-only effect; inactive = no such curve, though single readings can be large or run the other way. Where the call is inconclusive, the potency comes from a doubtful curve fit.
# Test: A quantitative high throughput screen for small molecules that induce DNA re-replication in SW480 colon adenocarcinoma cells. For re-replication activation: % of control where 0% means no effect. Note: nearly all actives have a fitted effect of over 55% in size.
# Conditions: Hoechst DNA content imaging, 48 h; re-replication activation: at 46.1 µM (top of the series) unless noted
# Outline: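 Hoechst fluorescence of nuclei (405 nm excitation, 500-530 nm emission) measured by plate-scanning imager after 48 hr compound exposure at 37 C; re-replication scored as increased number of nuclei with elevated intensity.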
# Potency is the fitted concentration of half-maximal effect.
Compound,Potency,re-replication activation
O=C(NNC(=O)C1CCC1)c1ccc(Br)cc1,"inconclusive: 32.6 µM [activator, partial curve, poor fit]",
CNS(=O)(=O)c1cccc(C(=O)OCC(=O)Nc2ccc(OC)cc2[N+](=O)[O-])c1,inactive,
O=C(CSc1ccc(-c2ccco2)nn1)Nc1ccc(F)cc1F,inactive,
CC(C)CN(C(=O)COC(=O)CNC(=O)c1ccc(Cl)cc1)C1CCS(=O)(=O)C1 (stereo not given),,inconclusive: 61.5% [activator]
CCOCCCNC(=S)NCCCNc1nc2c(C)c(C)ccc2cc1C#N,active: 20.6 µM,
CC(=O)c1sc(Nc2ccccn2)nc1C,inactive,
COc1cccc(-c2nnc(NC(=O)c3cccs3)s2)c1,inactive,
CC(=O)NS(=O)(=O)c1ccc(NC(=O)c2cccc3ccccc23)cc1,"inconclusive: 29.1 µM [activator, single point]",
CCOc1ccc(OCC(=O)OCC(=O)N2CCN(C(=O)c3ccco3)CC2)cc1,,inconclusive: 82.9% [activator]
Cc1occc1-c1nnc(SCC(=O)c2c(N)n(C3CC3)c(=O)[nH]c2=O)n1C,"inconclusive: 32.6 µM [activator, single point]",
CC(=O)NC1CC2CCCC(C1)N2S(=O)(=O)c1cccc(F)c1 (stereo not given),"inconclusive: 1.84 µM [activator, full curve]",
O=C(NC1CCCCC1)C(c1ccncc1)N(Cc1ccc2c(c1)OCO2)C(=O)c1cnsn1 (stereo not given),"inconclusive: 32.6 µM [activator, partial curve, poor fit]",
O=C(Nc1ccc(NC(=O)c2sc3ccccc3c2Cl)cc1Cl)c1ccco1,"inconclusive: 20.6 µM [activator, single point]",
Cc1ccc(NC(=O)O/N=C/c2ccc(N(C)C)cc2)cc1,"inconclusive: 29.1 µM [activator, single point]",
COc1ccc(/C=N/NC(=O)c2ccncc2)cc1CSc1nc2ccccc2s1,"inconclusive: 29.1 µM [activator, single point]",
CSc1ccc(CN(C)C(=O)COc2ccc(C(=O)c3ccccc3)cc2)cc1,"inconclusive: 18.4 µM [activator, single point]",
O=C(CN1C(=O)S/C(=C\c2ccc(O)cc2)C1=O)c1ccccc1,"inconclusive: 4.11 µM [activator, partial curve, poor fit]",
O=C(CNC(=O)c1ccco1)OCc1ccc(C(=O)Oc2ccccc2)cc1,"inconclusive: 25.9 µM [activator, partial curve, poor fit]",
O=C(C[n+]1ccccc1)Nc1ccccc1Br,inactive,
C=CS(=O)(=O)N(Cc1ccccc1Br)[C@H](CO)CC(C)C,"inconclusive: 29.1 µM [activator, partial curve, poor fit]",
COc1ccc(S(=O)(=O)N(C)c2ccc(C(=O)N3CCCC3)cc2)cc1,"inconclusive: 18.4 µM [activator, single point]",
O=C(CN1CC(=O)Oc2ccccc21)OCC(=O)c1cccc(Br)c1,"inconclusive: 18.4 µM [activator, single point]",
Cc1cc(Sc2ncnc(N)c2[N+](=O)[O-])ncn1,"inconclusive: 8.2 µM [activator, partial curve]",
NC(=O)[C@H]1CC2(CC(c3cccc(NC(=O)COc4ccc(Cl)cc4)c3)=NO2)CN1C(=O)C(c1ccccc1)c1ccccc1 (stereo not given in full),"inconclusive: 0.0517 µM [activator, full curve, poor fit]",

Compound,Potency,re-replication activation
COc1cccc(/C=C2/SC(=S)N(CCC(=O)N3CCOCC3)C2=O)c1,inactive,
CC(C)CNC(=O)CN(C1CCCCC1)S(C)(=O)=O,active: 6.51 µM,
COc1ccc(COC(=O)C2CCN(C(=O)c3ccc(Cl)cc3)CC2)cc1F,inactive,
CCCCCCCCNc1ncnc2ccccc12,"inconclusive: 6.51 µM [activator, single point]",
COc1ccc2[nH]c3c(N4CCc5ccccc5C4)ncnc3c2c1,"inconclusive: 4.61 µM [activator, single point]",
CN(CC(=O)Nc1ccc(F)cc1)C(=O)CN1C(=O)NC2(CCCC2)C1=O,inactive,
COc1ccc(Br)cc1/C=N/NC(=O)C[n+]1ccccc1,"inconclusive: 20.6 µM [activator, single point]",
COc1cc(C(=O)Nc2ccc3c(c2)nc(C)n3C)cc(OC)c1OC,active: 14.6 µM,
CN(C)CCCNCC(=O)c1c(-c2ccccc2)n(C)c2ccccc12,"inconclusive: 13 µM [activator, partial curve, poor fit]",
CCC1(c2ccccc2)NC(=O)N(CC(=O)Nc2cc(S(=O)(=O)N3CCCCC3)ccc2OC(C)C)C1=O (stereo not given),"inconclusive: 0.82 µM [activator, partial curve, poor fit]",
CCOc1ccc(-c2nonc2NC(=O)c2ccco2)cc1,"inconclusive: 18.4 µM [activator, single point]",
CCOC(=O)c1nc(S(C)(=O)=O)ncc1Cl,"inconclusive: 32.6 µM [activator, single point]",
CCc1ccc(N(CC(=O)NC(C)C)C(=O)CCC(=O)Nc2nccs2)cc1,inactive,
O=C(O)c1ccc(NC2=C(Cl)C(=O)c3ccccc3C2=O)cc1,"inconclusive: 13 µM [activator, partial curve, poor fit]",
CC1(C)CC(=O)C=C(NCCc2c[nH]c3ccccc23)C1,"inconclusive: 6.51 µM [activator, single point]",
COc1ccccc1N1CCN(C(=O)c2cc(-c3ccc(C)cc3)on2)CC1,"inconclusive: 29.1 µM [activator, single point]",
COc1ccc(C(=O)N[C@H](C(=O)NCc2ccc(C)cc2)C(C)C)cc1,inactive,
COCCCNCCOCCOc1ccc(C)cc1Br,inactive,
Cc1ccc(NC(=S)N(CCN(C)C)Cc2cc3cccc(C)c3[nH]c2=O)cc1,active: 20.6 µM,
COc1ccc(-c2oc3cc(O)c(OC)c(O)c3c(=O)c2OC)cc1O,"inconclusive: 1.46 µM [activator, full curve, poor fit]",
CC1(c2nnc(-c3ccc(Cl)cc3)o2)CC(c2ccc(Cl)cc2)=NO1 (stereo not given),"inconclusive: 1.84 µM [activator, partial curve, poor fit]",
CC(C)N(C(=O)[C@H]1CC(CC(=O)NCCN2CCOCC2)C(=O)N2CCc3c([nH]c4ccccc34)[C@]12C)C(C)C (stereo not given in full),"inconclusive: 25.9 µM [activator, partial curve, poor fit]",
CCN(CC(=O)NCc1cccs1)C(=O)c1cc(S(=O)(=O)N2CCCCC2)ccc1Cl,"inconclusive: 1.84 µM [activator, full curve, poor fit]",
CC1CCN(C(=O)c2[nH]cnc2C(=O)Nc2ccon2)CC1,inactive,

Compound,Potency,re-replication activation
Cc1ccc(OCCN2CCN(c3ncnc4sc(C)c(C)c34)CC2)cc1,"inconclusive: 20.6 µM [activator, partial curve, poor fit]",
CCSc1nc(C2CC2)cc(-c2cccs2)c1C#N,"inconclusive: 29.1 µM [activator, single point]",
O=C1c2cc([N+](=O)[O-])ccc2-c2cc(Br)c(N=C(NO)C(F)(F)F)cc21,"inconclusive: 18.4 µM [activator, single point]",
Nc1nnc(SCC(=O)Nc2cccc(S(=O)(=O)N3CCCCC3)c2)s1,"inconclusive: 29.1 µM [activator, single point]",
Cc1csc2nc(SCC(=O)N3CCN(c4ccccc4)CC3)[nH]c(=O)c12,"inconclusive: 29.1 µM [activator, single point]",
COc1ccc(CCNC(=O)C2CC(c3ccc(C(F)(F)F)cc3)=NO2)cc1 (stereo not given),inactive,
COc1ccc(N2CCN(C(=O)CNC(=O)c3ccco3)CC2)cc1,inactive,
COc1cc(/C=C2\C(=O)NN(c3ccc(C)cc3)C2=O)cc([N+](=O)[O-])c1O,"inconclusive: 1.16 µM [activator, full curve, poor fit]",
Cc1ccsc1/C=N/NC(=O)c1cccnc1,inactive,
Cc1ccc(NC2=NCC(=O)N2C2CCCC2)cc1C,"inconclusive: 0.0082 µM [activator, full curve, poor fit]",
Cc1[nH]c2ccccc2c1C(=O)CN1CC(C)CC(C)C1 (stereo not given),"inconclusive: 2.91 µM [activator, full curve, poor fit]",
CCOC(=O)c1ccc(NC(=O)C2(c3ccc(Cl)cc3)CCCC2)cc1,inactive,
Cc1cc(C)c(S(=O)(=O)Cc2ccccc2)c(=O)[nH]1,"inconclusive: 0.58 µM [activator, partial curve, poor fit]",
CCCCN1Cc2c(nc3cc(-c4ccccc4)[nH]n3c2=O)C1=O,"inconclusive: 0.82 µM [activator, full curve]",
O=C(Nc1ccc(CN2CCCCC2)cc1)c1cc(Br)ccc1Cl,"inconclusive: 25.9 µM [activator, single point]",
COc1ccccc1N1C(N)=NC(N)=NC1(C)C,inactive,
Nc1ccc2nc(-c3ccccc3)cnc2c1,"inconclusive: 18.4 µM [activator, single point]",
Nc1c(NCCN2CCOCC2)c2ccccc2oc1=O,inactive,
O=C(Nc1ccc(Cl)cn1)c1ccc(COc2ccccc2Br)o1,inactive,
Cc1ccc(CSCC2Nc3ccc(C(=O)N4CCN(c5ccc(F)cc5)CC4)cc3NC2=O)cc1 (stereo not given),"inconclusive: 29.1 µM [activator, single point]",
CCOC(=O)c1ccc(NC(=S)N(CCCN2CCCC2)Cc2ccco2)cc1,inactive,
COc1ccc(C(=O)/C(Br)=C/C(=O)O)cc1,"inconclusive: 11.9 µM [activator, single point]",

# Reformatted as tab-separated lines: part of the list above
Compound	Potency	re-replication activation
CCSc1nc(C2CC2)cc(-c2cccs2)c1C#N	inconclusive: 29.1 µM [activator, single point]	
O=C1c2cc([N+](=O)[O-])ccc2-c2cc(Br)c(N=C(NO)C(F)(F)F)cc21	inconclusive: 18.4 µM [activator, single point]	
Nc1nnc(SCC(=O)Nc2cccc(S(=O)(=O)N3CCCCC3)c2)s1	inconclusive: 29.1 µM [activator, single point]	
Cc1csc2nc(SCC(=O)N3CCN(c4ccccc4)CC3)[nH]c(=O)c12	inconclusive: 29.1 µM [activator, single point]	
COc1ccc(CCNC(=O)C2CC(c3ccc(C(F)(F)F)cc3)=NO2)cc1 (stereo not given)	inactive	
COc1ccc(N2CCN(C(=O)CNC(=O)c3ccco3)CC2)cc1	inactive	
COc1cc(/C=C2\C(=O)NN(c3ccc(C)cc3)C2=O)cc([N+](=O)[O-])c1O	inconclusive: 1.16 µM [activator, full curve, poor fit]	
Cc1ccsc1/C=N/NC(=O)c1cccnc1	inactive	
Cc1ccc(NC2=NCC(=O)N2C2CCCC2)cc1C	inconclusive: 0.0082 µM [activator, full curve, poor fit]	
Cc1[nH]c2ccccc2c1C(=O)CN1CC(C)CC(C)C1 (stereo not given)	inconclusive: 2.91 µM [activator, full curve, poor fit]	
CCOC(=O)c1ccc(NC(=O)C2(c3ccc(Cl)cc3)CCCC2)cc1	inactive	
Cc1cc(C)c(S(=O)(=O)Cc2ccccc2)c(=O)[nH]1	inconclusive: 0.58 µM [activator, partial curve, poor fit]	
CCCCN1Cc2c(nc3cc(-c4ccccc4)[nH]n3c2=O)C1=O	inconclusive: 0.82 µM [activator, full curve]	
O=C(Nc1ccc(CN2CCCCC2)cc1)c1cc(Br)ccc1Cl	inconclusive: 25.9 µM [activator, single point]	
COc1ccccc1N1C(N)=NC(N)=NC1(C)C	inactive	
Nc1ccc2nc(-c3ccccc3)cnc2c1	inconclusive: 18.4 µM [activator, single point]	
Nc1c(NCCN2CCOCC2)c2ccccc2oc1=O	inactive	

# — PubChem BioAssay AID624297 (National Center for Advancing Translational Sciences (NCATS), 2012)
